Reference: patent US6673843B2 (Emory University, priority 1999, dated 2004)

System: bFGF-induced corneal neovascularization
Assay: Corneal neovascularization, bFGF pellet in mouse cornea
Format: in vivo, C57BL6 male mice
Details: for ANTI-ANGIOGENIC EFFECT Sector Size Rank: rank 1-5, higher = greater reduction of sector size; for ANTI-ANGIOGENIC EFFECT Vessel Length Rank: rank 1-5, higher = greater reduction of vessel length
Procedure: C57BL6 male mice (5-6 weeks old) were anesthetized with methoxyflurane prior to implantation of pellets and with 0.5% proparacaine. A central, intrastromal linear keratotomy was performed with a surgical blade, and a lamellar micropocket was prepared according to the method of Kenyon, et al. (1996). The pellet was advanced to the end of the pocket. Erythromycin ointment was placed on the operated eye to prevent infection. Eyes were examined by slit lamp on days 3-6 after implantation under general anesthesia. Corneal angiogenesis was assayed through two measurements.
Vessel length is the length of the vessel from the corneal limbus as it grows toward the pellet containing bFGF.
Sector size is a measurement of neovascularized area of the cornea. The cornea is viewed as a circle that can be divided into twelve sectors of 30 degrees span each, analogous to the division of a clock face into twelve hours. Thus, neovascularization of a sector corresponding to one fourth of the cornea would be recorded as a sector size measurement of three. This system of measurement, recording sector sizes as “clock hours”, was established by Kenyon et al., Invest. Ophthalmol. 37:1625-1632 (1996).
Pellets were prepared according to a modification of the method of Kenyon, et al. Invest. Opthalmol. Vis. Sci. 37:1625-1632 (1996). […] Once the mixture was dry, the mesh was manually dissociated to yield 225 pellets. […] The approximate pore size was 0.4×0.4 mm. Both sides of the mesh were covered with a thin layer of hydron.
Neovascularization was assessed by slit lamp at 5 days after implantation, and the corneas were photographed.

SMILES | ANTI-ANGIOGENIC EFFECT Sector Size Rank | ANTI-ANGIOGENIC EFFECT Vessel Length Rank
COc1cc(/C=C/C(=O)CC(=O)/C=C/c2ccc(O)c(OC)c2)ccc1O [Curcumin] | 4 | 4
O=C1C(c2ccccc2)=C(c2ccccc2)C(c2ccccc2)=C1c1ccccc1 [TPCPD, tetraphenylcyclopentadienone, reference compound] | 1 | 1
